Test results taken from patent US20250177533A1, “PHOTODYNAMIC THERAPY AND DIAGNOSIS” (RMW CHO Group Limited, priority 2021, published 2025).

System: Human ovarian cancer cell line SKOV3
Assay: Phototoxicity in SKOV3 cells (660 nm laser or LED, AlamarBlue viability)
Format: cell-based
Settings: calculated using phototoxicity IC90 vs dark toxicity IC10, SKOV3; phototoxicity by LED where marked *
Source text: All data are shown as mean±SD (where appropriate).
Media was then replaced with fresh media containing AlamarBlue, and % viable cells remaining assessed as above. […] All measurements were made in quadruplicate.

Question: `CCC1=C(C)c2cc3[nH]c(cc4nc(c(C)c5cc(C)c(cc1n2)[nH]5)[C@@H](CCC(=O)OC)[C@@H]4C)c(C)c3C(C)OCCOCC[n+]1ccccc1` (stereo partly drawn) [Compound 22, phyllochlorin methyl ester 2-(2-pyridiniumethoxy)ethyl ether chloride] was tested. Which “Therapeutic Index” value did it give?
Answer: 557.00

Question: Which “Therapeutic Index” value does the source give for `CCC1=C(C)c2cc3[nH]c(cc4nc(c(C)c5cc(C)c(cc1n2)[nH]5)[C@@H](CCC(=O)N(C)CCOC)[C@@H]4C)c(C)c3COC(=O)NCCC[P+](c1ccccc1)(c1ccccc1)c1ccccc1` [Compound 50, phyllochlorin N-methyl-N-(2-methoxy)ethyl propylamide 13-(N-(3-triphenylphosphoniumpropyl)bromide)carbamate] here?
Answer: 293.75

Question: With `CCC1=C(C)c2cc3[nH]c(cc4nc(c(C)c5cc(C)c(cc1n2)[nH]5)[C@@H](CCC(=O)N(C)CCOCCOCCOCCOCCOCCOC)[C@@H]4C)c(C)c3CO[C@@H]1O[C@H](CO)[C@@H](O)[C@H](O)[C@H]1O` [Compound 25, phyllochlorin 13-hydroxymethyl-β-D-glucoside ether-β-D-glucosel-N-methyl-N-3,6,9,12,15,18-hexaoxanonadecyl propylamide] as the compound, how does the “Therapeutic Index” value read?
Answer: 1.91

Question: How did the “Therapeutic Index” value turn out when `CCC1=C(C)c2cc3[nH]c(cc4nc(c(C)c5cc(C)c(cc1n2)[nH]5)[C@@H](CCCO)[C@@H]4C)c(C)c3CO[C@@H]1O[C@H](CO)[C@@H](O)[C@H](O)[C@H]1O` [Compound 35, phyllochlorin 3-hydroxypropyl-13-hydroxymethyl-β-D-glucoside ether] was run?
Answer: 35.35

Question: For `CCC1=C(C)c2cc3[nH]c(cc4nc(c(C)c5cc(C)c(cc1n2)[nH]5)[C@@H](CCCO)[C@@H]4C)c(C)c3CO` [Compound 32, phyllochlorin 13-hydroxymethyl-3-hydroxypropyl], which “Therapeutic Index” value is on record?
Answer: 426.10

Question: Which “Therapeutic Index” value does the source give for `CCC1=C(C)c2cc3[nH]c(cc4nc(c(C)c5cc(C)c(cc1n2)[nH]5)[C@@H](CCC(=O)N(CCOCCOCCOC)CCOCCOCCOC)[C@@H]4C)c(C)c3CO` [Compound 13, phyllochlorin 13-hydroxymethyl-N,N-bis-PEG3OMe propylamide] here?
Answer: 144.30

Question: For `CCC1=C(C)c2cc3[nH]c(cc4nc(c(C)c5cc(C)c(cc1n2)[nH]5)[C@@H](CCC(=O)NCCOC)[C@@H]4C)c(C)c3COC(=O)NCCC[P+](c1ccccc1)(c1ccccc1)c1ccccc1` [Compound 52, phyllochlorin N-(2-methoxy)ethyl propylamide 13-(N-(3-triphenylphosphoniumpropyl)bromide)carbamate], which “Therapeutic Index” value is on record?
Answer: 203.85

Question: Which “Therapeutic Index” value does the source give for `CCC1=C(C)c2cc3[nH]c(cc4nc(c(C)c5cc(C)c(cc1n2)[nH]5)[C@@H](CCC(=O)O)[C@@H]4C)c(C)c3CO` [Compound 17, phyllochlorin 13-hydroxymethyl] here?
Answer: 28.06

Question: With “phyllochlorin 13-(N-(3-(3-triphenylphosphoniumpropoxy)propyl)chloride)carbamate N-methyl-N-3,6,9-trioxadecyl propylamide [Compound 44]” as the compound, how does the “Therapeutic Index” value read?
Answer: 98.30

Question: Which “Therapeutic Index” value does the source give for `CCC1=C(C)c2cc3[nH]c(cc4nc(c(C)c5cc(C)c(cc1n2)[nH]5)[C@@H](CCC(=O)N(C)CCCS[C@@H]1O[C@H](CO)[C@@H](O)[C@H](O)[C@H]1O)[C@@H]4C)c(C)c3C(C)O` (stereo partly drawn) [Compound 26, 13-hydroxyethylphyllochlorin-β-D-1-thioglucose-N-methylpropylamide] here?
Answer: 86.90

Question: Which “Therapeutic Index” value does the source give for `CCC1=C(C)c2cc3[nH]c(cc4nc(c(C)c5cc(C)c(cc1n2)[nH]5)[C@@H](CCC(=O)N(CCOCCOCCOC)CCOCCOCCOC)[C@@H]4C)c(C)c3CO[C@@H]1O[C@H](CO)[C@@H](O)[C@H](O)[C@H]1O` [Compound 14, phyllochlorin 13-hydroxymethyl-β-D-glucoside ether-N,N-bis-PEG3OMe propylamide] here?
Answer: 3.37

Question: With `CCC1=C(C)c2cc3[nH]c(cc4nc(c(C)c5cc(C)c(cc1n2)[nH]5)[C@@H](CCC(=O)N(C)CCCOCCC[P+](c1ccccc1)(c1ccccc1)c1ccccc1)[C@@H]4C)c(C)c3CO` [Compound 18] as the compound, how does the “Therapeutic Index” value read?
Answer: 627.57
